The results in this text go back to patent publication US9023986B2 (Hoffmann-La Roche Inc., priority 2010, dated 2015).

For part of these data: One purity is given for all peptides; the source may state it once. Non-standard residues stand in square brackets, D forms with d.

The first data set in a line: general procedure: Fmoc solid-phase peptide synthesis; Fmoc Rink Amide MBHA resin; HBTU or DIC, HOBT added. The conditions noted are these: whole synthesis, scale 0.25 mmol, 1:1 TFA.
As to “Ac-[dY]AEGTFISDYSIAMDAIHQQDFVNWLLAQK-NH2 (SMILES CC[C@H](C)[C@H](NC(=O)[C@H](C)NC(=O)[C@H](CC(=O)O)NC(=O)[C@H](CCSC)NC(=O)[C@H](C)NC(=O)[C@@H](NC(=O)[C@H](CO)NC(=O)[C@H](Cc1ccc(O)cc1)NC(=O)[C@H](CC(=O)O)NC(=O)[C@H](CO)NC(=O)[C@@H](NC(=O)[C@H](Cc1ccccc1)NC(=O)[C@@H](NC(=O)CNC(=O)[C@H](CCC(=O)O)NC(=O)[C@H](C)NC(=O)[C@@H](Cc1ccc(O)cc1)NC(C)=O)[C@@H](C)O)[C@@H](C)CC)[C@@H](C)CC)C(=O)N[C@@H](Cc1c[nH]cn1)C(=O)N[C@@H](CCC(N)=O)C(=O)N[C@@H](CCC(N)=O)C(=O)N[C@@H](CC(=O)O)C(=O)N[C@@H](Cc1ccccc1)C(=O)N[C@H](C(=O)N[C@@H](CC(N)=O)C(=O)N[C@@H](Cc1c[nH]c2ccccc12)C(=O)N[C@@H](CC(C)C)C(=O)N[C@@H](CC(C)C)C(=O)N[C@@H](C)C(=O)N[C@@H](CCC(N)=O)C(=O)N[C@@H](CCCCN)C(N)=O)C(C)C)”, the isolated mass came out at 80 mg and the isolated yield was 9%.

Still in this data set, the particulars now being: whole synthesis, scale 0.25 mmol, 1:2 TFA.
The substance “Ac-2-Cl-(D)Phe-Ala-Glu-Gly-Thr-Phe-Ile-Ser-Asp-Tyr-Ser-Ile-Ala-Met-Asp-Lys-Ile-His-Gln-Gln-Asp-Phe-Val-Asn-Trp-Leu-Leu-Ala-Gln-Lys-NH2” returned an isolated mass of 94 mg and an isolated yield of 9.7%.

The substance “Ac-2-F-(D)Phe-Ala-Glu-Gly-Thr-Phe-Ile-Ser-Asp-Tyr-Ser-Ile-Ala-Met-Asp-Lys-Ile-His-Gln-Gln-Asp-Phe-Val-Asn-Trp-Leu-Leu-Ala-Gln-Lys-NH2” showed an isolated mass of 92 mg and an isolated yield of 9.5%.

On to “Ac-3,4,5,F3-(D)Phe-Ala-Glu-Gly-Thr-Phe-Ile-Ser-Asp-Tyr-Ser-Ile-Ala-Met-Asp-Lys-Ile-His-Gln-Gln-Asp-Phe-Val-Asn-Trp-Leu-Leu-Ala-Gln-Lys-NH2”, for which the isolated mass worked out at 30 mg and the isolated yield came out at 3%.

Regarding “Ac-3,5-DiF-(D)Phe-Ala-Glu-Gly-Thr-Phe-Ile-Ser-Asp-Tyr-Ser-Ile-Ala-Met-Asp-Lys-Ile-His-Gln-Gln-Asp-Phe-Val-Asn-Trp-Leu-Leu-Ala-Gln-Lys-NH2”, the isolated mass amounted to 64 mg and the isolated yield is 6.6%.

Take “Ac-3-Cl-(D)Phe-Ala-Glu-Gly-Thr-Phe-Ile-Ser-Asp-Tyr-Ser-Ile-Ala-Met-Asp-Lys-Ile-His-Gln-Gln-Asp-Phe-Val-Asn-Trp-Leu-Leu-Ala-Gln-Lys-NH2”: the isolated mass turned out to be 70 mg and the isolated yield was 7.2%.

The substance “Ac-3-F-(D)Phe-Ala-Glu-Gly-Thr-Phe-Ile-Ser-Asp-Tyr-Ser-Ile-Ala-Met-Asp-Lys-Ile-His-Gln-Gln-Asp-Phe-Val-Asn-Trp-Leu-Leu-Ala-Gln-Lys-NH2” registered an isolated mass of 100 mg and an isolated yield of 10.4%.

“Ac-4-Cl-(D)Phe-Ala-Glu-Gly-Thr-Phe-Ile-Ser-Asp-Tyr-Ser-Ile-Ala-Met-Asp-Lys-Ile-His-Gln-Gln-Asp-Phe-Val-Asn-Trp-Leu-Leu-Ala-Gln-Lys-NH2” displayed an isolated mass of 96 mg and an isolated yield of 10%.

The substance “Ac-(D)-3-Pya-Ala-Glu-Gly-Thr-Phe-Ile-Ser-Asp-Tyr-Ser-Ile-Ala-Met-Asp-Lys-Ile-His-Gln-Gln-Asp-Phe-Val-Asn-Trp-Leu-Leu-Ala-Gln-Lys-NH2” yielded an isolated mass of 40 mg and an isolated yield of 4%.

Take “Ac-(D)Phe-Ala-Glu-Gly-Thr-Phe-Ile-Ser-Asp-Tyr-Ser-Ile-Ala-Met-Asp-Lys-Ile-His-Gln-Gln-Asp-Phe-Val-Asn-Trp-Leu-Leu-Ala-Gln-Lys-NH2”: the isolated mass turned out to be 80 mg and the isolated yield is reported as 8.3%.

Regarding “Ac-(D)Trp-Ala-Glu-Gly-Thr-Phe-Ile-Ser-Asp-Tyr-Ser-Ile-Ala-Met-Asp-Lys-Ile-His-Gln-Gln-Asp-Phe-Val-Asn-Trp-Leu-Leu-Ala-Gln-Lys-NH2”, the isolated mass amounted to 62 mg and the isolated yield amounted to 6.4%.

“DesNH2-Phe-Ala-Glu-Gly-Thr-Phe-Ile-Ser-Asp-Tyr-Ser-Ile-Ala-Met-Asp-Lys-Ile-His-Gln-Gln-Asp-Phe-Val-Asn-Trp-Leu-Leu-Ala-Gln-Lys-NH2” yielded an isolated mass of 120 mg and an isolated yield of 12.7%.

A further data set is described as follows: general procedure: Fmoc solid-phase peptide synthesis; Fmoc Rink Amide MBHA resin (0.45 meq/g); Fmoc Gln(Trt) Wang resin; HBTU or DIC, HOBT added. Particulars: conjugation step, 280 nm, TFA.
On to “Ac-(D)Tyr-Ala-Glu-Gly-Thr-Phe-Ile-Ser-Asp-Tyr-Ser-Ile-Ala-Met-Asp-Ala-Ile-His-Gln-Gln-Asp-Phe-Val-Asn-Trp-Leu-Leu-Ala-Gln-Lys (epsilon-SSA-PEGm(12,000))-NH2 (YAEGTFISDYSIAMDAIHQQDFVNWLLAQK; acetyl, amide, D-residue, PEG 12kDa)”, for which the “final HPLC purity” value was greater than 98%.

With “Ac-(D)Tyr-Ala-Glu-Gly-Thr-Phe-Ile-Ser-Asp-Tyr-Ser-Ile-Ala-Met-Asp-Ala-Ile-His-Gln-Gln-Asp-Phe-Val-Asn-Trp-Leu-Leu-Ala-Gln-Lys (epsilon-SSA-PEGm(20,000))-NH2 (YAEGTFISDYSIAMDAIHQQDFVNWLLAQK; acetyl, amide, D-residue, PEG 20kDa)”, the “final HPLC purity” value was greater than 98%.

In the case of “Ac-(D)Tyr-Ala-Glu-Gly-Thr-Phe-Ile-Ser-Asp-Tyr-Ser-Ile-Ala-Met-Asp-Ala-Ile-His-Gln-Gln-Asp-Phe-Val-Asn-Trp-Leu-Leu-Ala-Gln-Lys (epsilon-SSA-PEGm(30,000))-NH2 (YAEGTFISDYSIAMDAIHQQDFVNWLLAQK; acetyl, amide, D-residue, PEG 30kDa)”, the “final HPLC purity” value is reported as greater than 98%.

The data set is the same for the next values; noted with them: conjugation step, TFA.
“Ac-(D)Tyr-Ala-Glu-Gly-Thr-Phe-Ile-Ser-Asp-Tyr-Ser-Ile-Ala-Met-Asp-Ala-Ile-His-Gln-Gln-Asp-Phe-Val-Asn-Trp-Leu-Leu-Ala-Gln-Lys (epsilon-SSA-PEGm(12,000))-NH2 (YAEGTFISDYSIAMDAIHQQDFVNWLLAQK; acetyl, amide, D-residue, PEG 12kDa)” came in with a conjugation yield of 38.1%.

Consider “Ac-(D)Tyr-Ala-Glu-Gly-Thr-Phe-Ile-Ser-Asp-Tyr-Ser-Ile-Ala-Met-Asp-Ala-Ile-His-Gln-Gln-Asp-Phe-Val-Asn-Trp-Leu-Leu-Ala-Gln-Lys (epsilon-SSA-PEGm(20,000))-NH2 (YAEGTFISDYSIAMDAIHQQDFVNWLLAQK; acetyl, amide, D-residue, PEG 20kDa)”, for which the conjugation yield is listed as 54.9%.

Regarding “Ac-(D)Tyr-Ala-Glu-Gly-Thr-Phe-Ile-Ser-Asp-Tyr-Ser-Ile-Ala-Met-Asp-Ala-Ile-His-Gln-Gln-Asp-Phe-Val-Asn-Trp-Leu-Leu-Ala-Gln-Lys (epsilon-SSA-PEGm(30,000))-NH2 (YAEGTFISDYSIAMDAIHQQDFVNWLLAQK; acetyl, amide, D-residue, PEG 30kDa)”, the conjugation yield worked out at 85.0%.
